Values of other authors, collected in patent publication US9446009B2, “Methods for treating conditions of the nail unit” (Hallux, Inc., priority 2004, dated 2016).
≈ marks a conversion by molar mass, not a printed value. For at least one compound, name, drawing or mass did not settle the structure.

Columns and labels:
Conditions in all cases: in vitro
[1] = test system: Trichophyton mentagrophytes
Trichophyton tonsurans = test system: Trichophyton tonsurans
Trichophyton verrucosum = test system: Trichophyton verrucosum
Trichophyton rubrum = test system: Trichophyton rubrum

CCC(C)n1ncn(-c2ccc(N3CCN(c4ccc(OCC5COC(Cn6cncn6)(c6ccc(Cl)cc6Cl)O5)cc4)CC3)cc2)c1=O (stereo not shown) [Itraconazole]
MIC Ranges [1]: 8 to 60 ng/mL
MIC Ranges (Trichophyton tonsurans): ≦0.001-0.5 mcg/ml
MIC Ranges (Trichophyton verrucosum): 1000 ng/mL (≈ 1.42 µM)
MIC Ranges (Trichophyton rubrum): <1 to 1000 ng/mL
